In PMC10709431 one finds binding data, which are given here for one substance.

Chains of the proteins cited; added tags and fusions are not shown.
UniProt Q13131: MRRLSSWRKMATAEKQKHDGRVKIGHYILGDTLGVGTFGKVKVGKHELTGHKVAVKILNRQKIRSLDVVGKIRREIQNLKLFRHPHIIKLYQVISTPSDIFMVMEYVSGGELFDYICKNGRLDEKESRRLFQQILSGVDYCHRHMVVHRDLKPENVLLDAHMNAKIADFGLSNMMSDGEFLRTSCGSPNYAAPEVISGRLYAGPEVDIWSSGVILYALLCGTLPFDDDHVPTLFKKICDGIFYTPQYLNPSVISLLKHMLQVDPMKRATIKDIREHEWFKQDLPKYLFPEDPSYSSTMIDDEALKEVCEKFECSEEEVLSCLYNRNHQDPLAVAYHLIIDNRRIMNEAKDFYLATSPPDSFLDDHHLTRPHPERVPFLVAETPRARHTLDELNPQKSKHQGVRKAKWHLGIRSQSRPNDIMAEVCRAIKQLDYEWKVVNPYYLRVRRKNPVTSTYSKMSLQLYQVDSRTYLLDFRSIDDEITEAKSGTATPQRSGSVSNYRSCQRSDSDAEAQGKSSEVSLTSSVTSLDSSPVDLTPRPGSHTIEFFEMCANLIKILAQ
UniProt Q06210: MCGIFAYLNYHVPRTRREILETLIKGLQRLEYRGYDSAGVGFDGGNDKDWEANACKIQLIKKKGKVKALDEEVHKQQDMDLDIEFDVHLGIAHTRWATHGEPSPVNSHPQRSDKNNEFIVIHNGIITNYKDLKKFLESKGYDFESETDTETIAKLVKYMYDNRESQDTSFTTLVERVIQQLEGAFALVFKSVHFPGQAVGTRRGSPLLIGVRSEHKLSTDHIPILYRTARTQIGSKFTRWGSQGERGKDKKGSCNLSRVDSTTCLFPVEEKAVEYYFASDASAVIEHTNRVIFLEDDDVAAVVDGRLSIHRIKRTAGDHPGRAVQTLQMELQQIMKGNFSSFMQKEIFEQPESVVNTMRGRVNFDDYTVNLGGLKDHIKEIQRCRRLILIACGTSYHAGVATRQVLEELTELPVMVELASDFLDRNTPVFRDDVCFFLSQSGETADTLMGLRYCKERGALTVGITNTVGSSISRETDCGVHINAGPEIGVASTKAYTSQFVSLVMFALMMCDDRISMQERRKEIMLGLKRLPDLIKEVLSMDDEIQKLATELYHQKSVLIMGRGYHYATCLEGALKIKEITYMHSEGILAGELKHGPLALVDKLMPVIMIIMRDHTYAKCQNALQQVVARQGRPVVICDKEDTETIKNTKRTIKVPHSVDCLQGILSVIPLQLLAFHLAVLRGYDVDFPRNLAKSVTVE

The test addresses AMPKα1 in experiments shown only in supplementary figures (endogenous or transfected not stated) (UniProt Q13131). In words: co-IP; co-IP of the AMPK complex (Fig. S4n); bait and constructs not shown; A375 cells with or without MMAE in Fig. S4o.

Results are given in words; binding and its absence hold for the method and conditions named. Binding seen in cells or lysates may run through a third protein. Some results given as binding are weak or reduced against the parent protein; the word gives no strength.

With “glutamine fructose-6-phosphate aminotransferase 1 (GFAT1) (from UniProt Q06210 1-699) (enzyme)”, the binding result is on record as “binds”.
